{
  "source": "PubChem BioAssay AID2685",
  "about": "(National Center for Advancing Translational Sciences (NCATS), 2010)",
  "experiment": "qHTS Assay for Lipid Storage Modulators in Drosophila S3 Cells;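 for cell number change: cells counted by Cell Tracker Red CMTPX staining in the red channel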",
  "settings": "BODIPY lipid droplet fluorescence, 18-24 h; for cell number change: measured here: cell count max response, cells fed with added oleic acid",
  "outline": "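Laser-scanning cytometry quantifies lipid droplet accumulation (500–530 nm total intensity; droplet/cell object ratio) in oleic acid-fed (400 uM added) Drosophila S3 cells treated with a concentration series. 20 uM Triacsin C defined 100% inhibition.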",
  "key": {"[1]": {"settings": "measured here: lipid fluorescence (Fed channel) AC50, cells fed with added oleic acid"}, "[2]": {"settings": "measured here: cell number channel AC50, cells fed with added oleic acid"}},
  "note": "Where “and” joins values, the source holds several entries; their conditions need not be identical. Equal values may be shown once. The list shows a part of the results. Further columns of the screen follow, without active or inactive calls. The list favours compounds with an active or inconclusive main result. Words in brackets tell the shape of the fitted curve; partial curves, single points and poor fits give uncertain potencies.",
  "data": [
    {"smiles": "Cc1nonc1CN(C)C(=O)CC1C(=O)NCCN1Cc1ccccc1F", "note": "(stereo not drawn)", "values": [
      {"measurement": "cell number change", "value": -1.42, "unit": "%"},
      {"measurement": "AC50", "setting": "[1]", "value": "29.1 µM [rising, single point]"}
    ]},
    {"smiles": "Cn1c(Br)nc2c1c(=O)n(CC(O)COc1ccccc1)c(=O)n2C", "note": "(stereo not drawn)", "values": [
      {"measurement": "cell number change", "value": -10.2, "unit": "%"},
      {"measurement": "AC50", "setting": "[1]", "value": "0.092 µM [rising, full curve, poor fit]"}
    ]},
    {"smiles": "COC(C(=O)Nc1ccc(S(=O)(=O)Nc2cccc3ccccc23)cc1)c1ccccc1", "note": "(stereo not drawn)", "values": [
      {"measurement": "cell number change", "value": 1.51, "unit": "%"},
      {"measurement": "AC50", "setting": "[1]", "value": "0.0291 µM [rising, full curve, poor fit]"}
    ]},
    {"smiles": "CCOC(=O)CS(=O)(=O)CC(=O)Nc1ccc([N+](=O)[O-])cc1OC", "values": [
      {"measurement": "cell number change", "value": 35.5, "unit": "%"},
      {"measurement": "AC50", "setting": "[2]", "value": "29.1 µM [rising, single point]"}
    ]},
    {"smiles": "O=S(=O)(c1ccc(Cl)cc1)N1CCN(c2nc(-c3cccs3)nc3ccccc23)CC1", "values": [
      {"measurement": "cell number change", "value": 30.6, "unit": "%"},
      {"measurement": "AC50", "setting": "[2]", "value": "11.6 µM [rising, partial curve]"},
      {"measurement": "AC50", "setting": "[1]", "value": "10.3 µM [rising, partial curve]"}
    ]},
    {"smiles": "Cc1ccc(-c2cc(C(=O)NN3CCOCC3)c3cc(Br)ccc3n2)o1", "values": [
      {"measurement": "cell number change", "value": 86.8, "unit": "%"},
      {"measurement": "AC50", "setting": "[2]", "value": "23.1 µM [rising, single point]"}
    ]},
    {"smiles": "Cc1ccc2nc(N(CCCN(C)C)C(=O)c3ccc(S(=O)(=O)N4CCOCC4)cc3)sc2c1", "values": [
      {"measurement": "cell number change", "value": 10.7, "unit": "%"},
      {"measurement": "AC50", "setting": "[1]", "value": "0.355 µM [rising, full curve, poor fit]"}
    ]},
    {"smiles": "COc1cccc(CC(=O)NCC2COc3ccccc3O2)c1OC", "note": "(stereo not drawn)", "values": [
      {"measurement": "cell number change", "value": 15, "unit": "%"},
      {"measurement": "AC50", "setting": "[1]", "value": "1.84 µM [rising, partial curve, poor fit]"}
    ]},
    {"smiles": "CO/N=C\\CC(=O)Nc1ccc(Cl)cc1Cl", "values": [
      {"measurement": "cell number change", "value": -11.7, "unit": "%"},
      {"measurement": "AC50", "setting": "[1]", "value": "23.1 µM [falling, single point]"}
    ]},
    {"smiles": "CS(=O)(=O)NCCNc1ccc(C(F)(F)F)cc1[N+](=O)[O-]", "values": [
      {"measurement": "cell number change", "value": 10.4, "unit": "%"}
    ]},
    {"smiles": "COc1ccc(C2OCC3(CO2)SC(=O)NC3=O)cc1", "note": "(stereo not drawn)", "values": [
      {"measurement": "cell number change", "value": -17.5, "unit": "%"},
      {"measurement": "AC50", "setting": "[2]", "value": "2.06 µM [rising, partial curve]"}
    ]},
    {"smiles": "COc1cc(CN(CC2CCCO2)C(=O)c2cccs2)cc(OC)c1OC", "note": "(stereo not drawn)", "values": [
      {"measurement": "AC50", "setting": "[1]", "value": "29.1 µM [rising, single point]"}
    ]},
    {"smiles": "O=C(NNc1ccccc1Br)C(O)(c1cccc(C(F)(F)F)c1)c1cccc(C(F)(F)F)c1", "values": [
      {"measurement": "cell number change", "value": -74.1, "unit": "%"},
      {"measurement": "AC50", "setting": "[2]", "value": "29.1 µM [falling, single point]"},
      {"measurement": "AC50", "setting": "[1]", "value": "4.61 µM [falling, partial curve, poor fit]"}
    ]},
    {"smiles": "CCN(CC)CCCn1c(=S)[nH]c2ccc(Cl)cc2c1=O", "values": [
      {"measurement": "AC50", "setting": "[2]", "value": "6.51 µM [falling, single point]"}
    ]},
    {"smiles": "COc1ccc(N2CCN(CCC(N)=O)CC2)cc1", "values": [
      {"measurement": "cell number change", "value": -18.4, "unit": "%"}
    ]},
    {"smiles": "CSc1ccc(/C=N/n2c(Cc3ccc(Br)cc3)n[nH]c2=S)cc1", "values": [
      {"measurement": "AC50", "setting": "[2]", "value": "0.651 µM [falling, single point]"}
    ]},
    {"smiles": "O=C(O)CN1C(=O)SC(Nc2ccc(C(=O)O)cc2)C1=O", "note": "(stereo not drawn)", "values": [
      {"measurement": "cell number change", "value": 4.49, "unit": "%"}
    ]},
    {"smiles": "CCOC(=O)CNC(=O)CSc1nnc(-c2cccc(OC)c2)n1CC", "values": [
      {"measurement": "cell number change", "value": -1.7, "unit": "%"},
      {"measurement": "AC50", "setting": "[1]", "value": "6.51 µM [falling, single point]"}
    ]},
    {"smiles": "CCOc1ccc(C(C(=O)NC2CCCC2)N(CCOC)C(=O)CNC(=O)c2ccco2)cc1", "note": "(stereo not drawn)", "values": [
      {"measurement": "cell number change", "value": 22.2, "unit": "%"},
      {"measurement": "AC50", "setting": "[1]", "value": "6.51 µM [rising, single point]"}
    ]},
    {"smiles": "CC1Cc2ccccc2N1C(=O)CSc1nnc(Cc2ccccc2)n1CCc1ccccc1", "note": "(stereo not drawn)", "values": [
      {"measurement": "cell number change", "value": -18, "unit": "%"},
      {"measurement": "AC50", "setting": "[2]", "value": "1.46 µM [rising, partial curve]"},
      {"measurement": "AC50", "setting": "[1]", "value": "2.06 µM [rising, partial curve]"}
    ]},
    {"smiles": "Cc1ccc(NS(=O)(=O)c2ccc(F)cc2)nc1", "values": [
      {"measurement": "cell number change", "value": -8.01, "unit": "%"}
    ]},
    {"smiles": "CCCC(=O)Nc1cc(C)c(NC(=O)Cc2ccccc2)cn1", "values": [
      {"measurement": "cell number change", "value": -6.54, "unit": "%"}
    ]},
    {"smiles": "Cc1nn(CC(=O)c2cccc(Cl)c2)c(C)c1[N+](=O)[O-]", "values": [
      {"measurement": "cell number change", "value": -14.7, "unit": "%"},
      {"measurement": "AC50", "setting": "[2]", "value": "6.51 µM [rising, single point]"},
      {"measurement": "AC50", "setting": "[1]", "value": "3.66 µM [rising, single point]"}
    ]},
    {"smiles": "Cc1cccc(CCN(CC(=O)NCc2ccc(F)cc2)C(=O)c2csnn2)c1", "values": [
      {"measurement": "cell number change", "value": -1.28, "unit": "%"}
    ]},
    {"smiles": "CCOc1ccc(OCCNC(=O)c2cc(C3CC3)nc3c2cnn3C(C)C)cc1", "values": [
      {"measurement": "cell number change", "value": 34.9, "unit": "%"},
      {"measurement": "AC50", "setting": "[2]", "value": "20.6 µM [rising, single point]"}
    ]},
    {"smiles": "O=C(CCCOc1ccccc1)Nc1nccs1", "values": [
      {"measurement": "cell number change", "value": -1.36, "unit": "%"},
      {"measurement": "AC50", "setting": "[1]", "value": "16.4 µM [rising, partial curve]"}
    ]},
    {"smiles": "CCOC(=O)c1sc(NC(=O)c2ccccc2OC)nc1C", "values": [
      {"measurement": "cell number change", "value": 3.68, "unit": "%"}
    ]},
    {"smiles": "COc1ccc(OC)c(C(=O)NC(CC(N)=O)c2ccc(NCCN3CCOCC3)c([N+](=O)[O-])c2)c1", "note": "(stereo not drawn)", "values": [
      {"measurement": "cell number change", "value": 15.8, "unit": "%"},
      {"measurement": "AC50", "setting": "[1]", "value": "23.1 µM [rising, single point]"}
    ]},
    {"smiles": "O=C(O)CN(Cc1ccccc1)S(=O)(=O)c1ccc(F)cc1", "values": [
      {"measurement": "cell number change", "value": -11.9, "unit": "%"},
      {"measurement": "AC50", "setting": "[1]", "value": "0.00651 µM [falling, full curve, poor fit]"}
    ]},
    {"smiles": "CN(NS(C)(=O)=O)c1ncc(C(F)(F)F)cc1Cl", "values": [
      {"measurement": "cell number change", "value": 2.85, "unit": "%"}
    ]},
    {"smiles": "CCC(=O)NC(C)c1cc(Cl)c2cccnc2c1O", "note": "(stereo not drawn)", "values": [
      {"measurement": "cell number change", "value": "-25.6% and 13.7%"},
      {"measurement": "AC50", "setting": "[1]", "value": "92 nM [falling, single point] and 13 µM [falling, partial curve]"}
    ]},
    {"smiles": "Cc1cc(C)n(-c2ccc(C(=O)OCn3nnc4ccccc4c3=O)cc2)n1", "values": [
      {"measurement": "cell number change", "value": 19.9, "unit": "%"},
      {"measurement": "AC50", "setting": "[1]", "value": "3.66 µM [rising, partial curve]"}
    ]},
    {"smiles": "COC(=O)C(NC(=O)c1ccc(OC)cc1)(Nc1ncc(S(=O)(=O)c2ccc([N+](=O)[O-])cc2)s1)C(F)(F)F", "note": "(stereo not drawn)", "values": [
      {"measurement": "cell number change", "value": -0.132, "unit": "%"}
    ]},
    {"smiles": "CCc1cc2c(N3CCN(c4nnc(CC)s4)CC3)ncnc2s1", "values": [
      {"measurement": "cell number change", "value": -20.3, "unit": "%"}
    ]},
    {"smiles": "CC(Sc1nnc(N)s1)C(=O)Nc1ccc2c(c1)OCCO2", "note": "(stereo not drawn)", "values": [
      {"measurement": "cell number change", "value": -9.83, "unit": "%"}
    ]},
    {"smiles": "FC(F)(F)c1cccc(NC(=S)NCCc2ccccn2)c1", "values": [
      {"measurement": "cell number change", "value": 25.1, "unit": "%"},
      {"measurement": "AC50", "setting": "[1]", "value": "29.1 µM [rising, single point]"}
    ]},
    {"smiles": "COc1cccc(-c2nn(C)c3sc(C(=O)NCc4ccc(C)cc4)cc23)c1", "values": [
      {"measurement": "cell number change", "value": -6.44, "unit": "%"},
      {"measurement": "AC50", "setting": "[1]", "value": "0.0259 µM [rising, full curve, poor fit]"}
    ]},
    {"smiles": "O=C1CC2(CCN(C(=O)c3cccc(Br)c3)CC2)Oc2ccccc21", "values": [
      {"measurement": "cell number change", "value": -10.3, "unit": "%"},
      {"measurement": "AC50", "setting": "[1]", "value": "6.51 µM [rising, single point]"}
    ]},
    {"smiles": "COc1ccc(OCCCC(=O)Nc2ccc(S(=O)(=O)N3CCOCC3)cc2)cc1", "values": [
      {"measurement": "cell number change", "value": 24.7, "unit": "%"},
      {"measurement": "AC50", "setting": "[1]", "value": "0.103 µM [rising, full curve, poor fit]"}
    ]},
    {"smiles": "CC(C)NC(=O)c1ccc(CS(=O)(=O)c2ccc(Br)cc2)o1", "values": [
      {"measurement": "cell number change", "value": -11.4, "unit": "%"},
      {"measurement": "AC50", "setting": "[1]", "value": "0.146 µM [rising, full curve, poor fit]"}
    ]},
    {"smiles": "O=C(Nc1ccc(F)cc1)C1CC(=O)n2ncnc2N1", "note": "(stereo not drawn)", "values": [
      {"measurement": "cell number change", "value": -44.1, "unit": "%"},
      {"measurement": "AC50", "setting": "[2]", "value": "5.8 µM [falling, full curve]"},
      {"measurement": "AC50", "setting": "[1]", "value": "5.8 µM [falling, full curve]"}
    ]}
  ]
}
